Results from publication PMC9293440.
No constants are given. Whether binding was seen depends on the method and setting. In cells and extracts the contact can be indirect. Some entries that bind do so weakly or less than the wild type. Where a sequence is shown, tags or fusion partners need not be part of it.

T1: LYK2-GFP (Arabidopsis thaliana LysM-containing Receptor-Like Kinase 2, GFP-tagged) (Arabidopsis thaliana) (UniProt Q9SGI7)
T1 sequence: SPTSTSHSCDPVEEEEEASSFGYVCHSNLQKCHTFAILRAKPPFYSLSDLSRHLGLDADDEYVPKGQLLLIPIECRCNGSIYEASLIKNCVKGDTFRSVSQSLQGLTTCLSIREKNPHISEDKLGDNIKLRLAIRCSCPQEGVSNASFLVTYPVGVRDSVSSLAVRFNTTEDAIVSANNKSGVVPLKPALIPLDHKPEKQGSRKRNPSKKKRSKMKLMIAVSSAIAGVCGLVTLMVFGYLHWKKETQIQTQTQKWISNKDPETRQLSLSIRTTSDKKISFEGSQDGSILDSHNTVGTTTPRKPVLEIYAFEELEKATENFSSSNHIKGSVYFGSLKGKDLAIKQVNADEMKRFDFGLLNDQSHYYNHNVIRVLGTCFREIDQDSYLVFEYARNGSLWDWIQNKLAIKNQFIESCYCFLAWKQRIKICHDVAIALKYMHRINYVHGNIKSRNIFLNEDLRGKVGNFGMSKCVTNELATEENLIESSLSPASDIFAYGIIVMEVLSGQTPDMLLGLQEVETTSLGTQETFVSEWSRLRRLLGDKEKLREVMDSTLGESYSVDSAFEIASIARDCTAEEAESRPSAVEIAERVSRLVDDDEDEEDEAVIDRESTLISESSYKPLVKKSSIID

T2: LYK2 fused to a half of YFP for BiFC (LYK2-NYFP; LYK2-CYFP) (Arabidopsis thaliana) (UniProt Q9SGI7)
T2 sequence: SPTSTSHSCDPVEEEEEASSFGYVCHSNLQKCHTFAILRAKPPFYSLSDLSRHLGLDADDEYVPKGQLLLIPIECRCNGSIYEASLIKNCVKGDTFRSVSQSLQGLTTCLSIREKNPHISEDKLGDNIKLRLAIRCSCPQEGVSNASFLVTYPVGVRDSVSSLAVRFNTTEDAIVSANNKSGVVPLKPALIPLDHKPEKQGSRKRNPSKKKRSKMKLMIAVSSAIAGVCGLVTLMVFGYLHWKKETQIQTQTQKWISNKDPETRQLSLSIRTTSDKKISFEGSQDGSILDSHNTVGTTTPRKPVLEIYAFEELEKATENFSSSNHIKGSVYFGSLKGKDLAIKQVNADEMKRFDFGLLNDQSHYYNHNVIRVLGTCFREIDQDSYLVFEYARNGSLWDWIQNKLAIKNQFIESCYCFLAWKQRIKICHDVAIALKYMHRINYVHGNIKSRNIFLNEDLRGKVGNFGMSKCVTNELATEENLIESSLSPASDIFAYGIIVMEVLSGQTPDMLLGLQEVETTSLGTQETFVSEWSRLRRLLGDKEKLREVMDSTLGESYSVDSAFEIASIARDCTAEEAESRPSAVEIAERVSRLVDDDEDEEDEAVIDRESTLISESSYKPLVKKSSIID


Columns and labels:
[1] = target: T1, LYK2-GFP (Arabidopsis thaliana LysM-containing Receptor-Like Kinase 2, GFP-tagged) (Arabidopsis thaliana); test: co-IP; LYK2-GFP and LYK5-myc transiently co-expressed in N. benthamiana leaves; lysis in 50 mM Tris pH 7.6, 150 mM NaCl, 0.5% Triton X-100, protease inhibitors; LYK2-GFP immunoprecipitated with anti-GFP beads (Chromotek); immunoblot with anti-GFP and anti-myc; no elicitor treatment
[2] = target: T2, LYK2 fused to a half of YFP for BiFC (LYK2-NYFP; LYK2-CYFP) (Arabidopsis thaliana); test: split reporter; BiFC with N- and C-terminal halves of YFP; fusions transiently co-expressed in N. tabacum leaves by Agrobacterium infiltration; confocal imaging 48 hr after infiltration
[3] = target: LYK5 fused to a half of YFP for BiFC (LYK5-NYFP; LYK5-CYFP) (Arabidopsis thaliana) (UniProt O22808); test: as above

Binder | binding [1] | binding [2] | binding [3]
LYK5-myc (Arabidopsis thaliana LYK5, myc-tagged) (receptor, UniProt O22808 27-664) QQPYVNNHQLACEVRVYDNITNGFTCNGPPSCRSYLTFWSQPPYNTADSIAKLLNVSAAEIQSINNLPTATTRIPTRELVVIPANCSCSSSSGGFYQHNATYNLSGNRGDETYFSVANDTYQALSTCQAMMSQNRYGERQLTPGLNLLVPLRCACPTAKQTTAGFKYLLTYLVAMGDSISGIAEMFNSTSAAITEGNELTSDNIFFFTPVLVPLTTEPTKIVISPSPPPPPVVATPPQTPVDPPGSSSSHKWIYIGIGIGAGLLLLLSILALCFYKRRSKKKSLPSSLPEENKLFDSSTKQSIPTTTTTQWSIDLSNSSEAFGLKSAIESLTLYRFNDLQSATSNFSDENRIKGSVYRATINGDDAAVKVIKGDVSSSEINLLKKLNHSNIIRLSGFCIREGTSYLVFEYSENGSISDWLHSSGKKSLTWKQRVEIARDVAEALDYLHNYITPPHIHKNLESTNILLDSNFRAKIANFGVARILDEGDLDLQLTRHVEGTQGYLAPEYVENGVITSKLDVFAFGVAVLELLSGREAVTIHKKKEGEEEVEMLCKVINSVLGGENVREKLKEFMDPSLGNEYPLELAYTMAQLAKSCVATDLNSRPSVTQVLTTLSMIVSSSIDWEPSDDLLRSGSLGN | binds |  | 
LYK5 fused to a half of YFP for BiFC (LYK5-NYFP; LYK5-CYFP) (receptor, UniProt O22808 27-664) QQPYVNNHQLACEVRVYDNITNGFTCNGPPSCRSYLTFWSQPPYNTADSIAKLLNVSAAEIQSINNLPTATTRIPTRELVVIPANCSCSSSSGGFYQHNATYNLSGNRGDETYFSVANDTYQALSTCQAMMSQNRYGERQLTPGLNLLVPLRCACPTAKQTTAGFKYLLTYLVAMGDSISGIAEMFNSTSAAITEGNELTSDNIFFFTPVLVPLTTEPTKIVISPSPPPPPVVATPPQTPVDPPGSSSSHKWIYIGIGIGAGLLLLLSILALCFYKRRSKKKSLPSSLPEENKLFDSSTKQSIPTTTTTQWSIDLSNSSEAFGLKSAIESLTLYRFNDLQSATSNFSDENRIKGSVYRATINGDDAAVKVIKGDVSSSEINLLKKLNHSNIIRLSGFCIREGTSYLVFEYSENGSISDWLHSSGKKSLTWKQRVEIARDVAEALDYLHNYITPPHIHKNLESTNILLDSNFRAKIANFGVARILDEGDLDLQLTRHVEGTQGYLAPEYVENGVITSKLDVFAFGVAVLELLSGREAVTIHKKKEGEEEVEMLCKVINSVLGGENVREKLKEFMDPSLGNEYPLELAYTMAQLAKSCVATDLNSRPSVTQVLTTLSMIVSSSIDWEPSDDLLRSGSLGN |  | binds | binds
LYK2 fused to a half of YFP for BiFC (LYK2-NYFP; LYK2-CYFP) (receptor, UniProt Q9SGI7 26-654) SPTSTSHSCDPVEEEEEASSFGYVCHSNLQKCHTFAILRAKPPFYSLSDLSRHLGLDADDEYVPKGQLLLIPIECRCNGSIYEASLIKNCVKGDTFRSVSQSLQGLTTCLSIREKNPHISEDKLGDNIKLRLAIRCSCPQEGVSNASFLVTYPVGVRDSVSSLAVRFNTTEDAIVSANNKSGVVPLKPALIPLDHKPEKQGSRKRNPSKKKRSKMKLMIAVSSAIAGVCGLVTLMVFGYLHWKKETQIQTQTQKWISNKDPETRQLSLSIRTTSDKKISFEGSQDGSILDSHNTVGTTTPRKPVLEIYAFEELEKATENFSSSNHIKGSVYFGSLKGKDLAIKQVNADEMKRFDFGLLNDQSHYYNHNVIRVLGTCFREIDQDSYLVFEYARNGSLWDWIQNKLAIKNQFIESCYCFLAWKQRIKICHDVAIALKYMHRINYVHGNIKSRNIFLNEDLRGKVGNFGMSKCVTNELATEENLIESSLSPASDIFAYGIIVMEVLSGQTPDMLLGLQEVETTSLGTQETFVSEWSRLRRLLGDKEKLREVMDSTLGESYSVDSAFEIASIARDCTAEEAESRPSAVEIAERVSRLVDDDEDEEDEAVIDRESTLISESSYKPLVKKSSIID |  | no binding | 
